The other results are listed elsewhere or left out. Repeats in this data set agree poorly, so a single value says little.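 Human kidney-derived cells stably carry a construct in which eight TEAD-binding elements drive luciferase, measured by luminescence in a drug-repurposing library screen. A hit is any compound whose signal exceeds the plate mean by more than five robust Z scores.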
Tested on: HEK293A TEAD-LUC reporter
Test: TEAD-luciferase reporter activity (YAP activation), robust Z score vs plate; higher = stronger YAP/TEAD activation
Conditions: 24 h

C[N+](C)(C)CCOP(=O)([O-])OCCCCCCCCCCCCCCCCCCc1ccc(I)cc1
TEAD-luciferase reporter activity (compound concentration: 200 nM): inactive: -1.08
TEAD-luciferase reporter activity (compound concentration: 2 uM): inactive: -1.15
TEAD-luciferase reporter activity (compound concentration: 10 uM): inactive: -0.974

CC(C)N1CC2CCC(C1)N2C(=O)c1ccc2c(c1)OCO2
TEAD-luciferase reporter activity (compound concentration: 200 nM): inactive: -0.404
TEAD-luciferase reporter activity (compound concentration: 10 uM): inactive: -0.791

O=C(NC1Cc2ccccc2C1)c1ccc(F)cc1
TEAD-luciferase reporter activity (compound concentration: 200 nM): inactive: 0.197
TEAD-luciferase reporter activity (compound concentration: 2 uM): inactive: -1.24
TEAD-luciferase reporter activity (compound concentration: 10 uM): inactive: 3.62

Cn1nnc(-c2ccc(-c3ccc(N4C[C@H](CO)OC4=O)cc3F)cn2)n1 [Tedizolid]
TEAD-luciferase reporter activity (compound concentration: 200 nM): inactive: -1.12
TEAD-luciferase reporter activity (compound concentration: 2 uM): inactive: 1.97
TEAD-luciferase reporter activity (compound concentration: 10 uM): inactive: 1.49

CCCCCCOc1cc(C)c(O)c(C)c1C
TEAD-luciferase reporter activity (compound concentration: 200 nM): inactive: 1.98
TEAD-luciferase reporter activity (compound concentration: 2 uM): inactive: 0.0536
TEAD-luciferase reporter activity (compound concentration: 10 uM): inactive: -2.17

O=C(NC1Cc2ccccc2C1)c1ccc2c(c1)OC(F)(F)O2
TEAD-luciferase reporter activity (compound concentration: 200 nM): inactive: 0.144
TEAD-luciferase reporter activity (compound concentration: 2 uM): inactive: 3.21
TEAD-luciferase reporter activity (compound concentration: 10 uM): active: 9.54

CC1(C)C[C@H]1C(=O)N/C(=C\CCCCSC[C@@H](N)C(=O)O)C(=O)O [Cilastatin sodium]
TEAD-luciferase reporter activity (compound concentration: 200 nM): inactive: 0.00403
TEAD-luciferase reporter activity (compound concentration: 2 uM): inactive: 1.78
TEAD-luciferase reporter activity (compound concentration: 10 uM): inactive: 4.65

COc1cc(/C=C/C(=O)CC(=O)/C=C/c2ccc(O)c(OC)c2)ccc1O [Curcumin]
TEAD-luciferase reporter activity (compound concentration: 200 nM): inactive: 0.0938
TEAD-luciferase reporter activity (compound concentration: 2 uM): inactive: -0.0105
TEAD-luciferase reporter activity (compound concentration: 10 uM): inactive: 1.29

CN1C(=O)c2ccccc2C(C)(C)C1=O
TEAD-luciferase reporter activity (compound concentration: 200 nM): inactive: 0.175
TEAD-luciferase reporter activity (compound concentration: 2 uM): inactive: -0.894
TEAD-luciferase reporter activity (compound concentration: 10 uM): inactive: -0.809

CC#Cc1cn([C@@H]2O[C@H](CO)[C@@H](O)[C@H]2OC)c(=O)[nH]c1=O
TEAD-luciferase reporter activity (compound concentration: 200 nM): inactive: -0.105
TEAD-luciferase reporter activity (compound concentration: 2 uM): inactive: -0.0957
TEAD-luciferase reporter activity (compound concentration: 10 uM): inactive: 1.46

CCc1nc(C)cn2nc(-c3cc(=O)n4cc(C5CCN(C)CC5)cc(C)c4n3)cc12
TEAD-luciferase reporter activity (compound concentration: 200 nM): inactive: -1.92
TEAD-luciferase reporter activity (compound concentration: 2 uM): inactive: 0.799
TEAD-luciferase reporter activity (compound concentration: 10 uM): inactive: -0.356

O=C(C1CCCN(C(=O)C2CCCC2)C1)N1CCC(N2CCCC2=O)CC1 (stereo not drawn)
TEAD-luciferase reporter activity (compound concentration: 200 nM): inactive: 3.63

CCOC(=O)[C@@H]1CCC(=O)N1
TEAD-luciferase reporter activity (compound concentration: 200 nM): inactive: 0.769
TEAD-luciferase reporter activity (compound concentration: 2 uM): inactive: 2.34
TEAD-luciferase reporter activity (compound concentration: 10 uM): inactive: 2.57

Cc1ccccc1C(=O)NC1CCN(c2nc3ncccc3o2)CC1
TEAD-luciferase reporter activity (compound concentration: 200 nM): inactive: -1.36
TEAD-luciferase reporter activity (compound concentration: 10 uM): inactive: 0.499

O=C(CCCN1CCN(c2ccccn2)CC1)c1ccc(F)cc1 [Azaperone]
TEAD-luciferase reporter activity (compound concentration: 200 nM): inactive: -2.19
TEAD-luciferase reporter activity (compound concentration: 2 uM): inactive: -1.28
TEAD-luciferase reporter activity (compound concentration: 10 uM): inactive: -1.44

CCCCCCCC(=O)OCC(COC(=O)CCCCCCC)OC(=O)CCCCCCC
TEAD-luciferase reporter activity (compound concentration: 200 nM): inactive: -0.383
TEAD-luciferase reporter activity (compound concentration: 10 uM): inactive: 1.41

CCCCCCCC(=O)OCC(COC(=O)CCCCCCC)OC(=O)CCCCCCC [Tricaprylin]
TEAD-luciferase reporter activity (compound concentration: 2 uM): inactive: -0.982

COc1ccnc(CS(=O)c2nc3cc(OC(F)F)ccc3[nH]2)c1OC (single isomer, unassigned; (-)) [(-)-pantoprazole]
TEAD-luciferase reporter activity (compound concentration: 2 uM): inactive: -2.14

CCC(=O)Oc1ccc2c(c1)CC[C@@H]1[C@@H]2CC[C@]2(C)[C@@H](OC(=O)CC)CC[C@@H]12
TEAD-luciferase reporter activity (compound concentration: 200 nM): inactive: 1.06
TEAD-luciferase reporter activity (compound concentration: 2 uM): inactive: -0.907
TEAD-luciferase reporter activity (compound concentration: 10 uM): inactive: 1.51

Cc1cc(C)c(-c2ccc(NC(=O)[C@H](Cc3ccc(C(=O)NCCS(=O)(=O)O)cc3)c3ccc(-c4ccc(C(C)(C)C)cc4)cc3)cc2)c(C)c1
TEAD-luciferase reporter activity (compound concentration: 200 nM): inactive: -1.05
TEAD-luciferase reporter activity (compound concentration: 2 uM): inactive: -0.822
TEAD-luciferase reporter activity (compound concentration: 10 uM): inactive: -0.0988

O=C(c1ccc(F)cc1)C1CCN(CCn2c(=O)[nH]c3ccccc3c2=O)CC1 [ketanserin]
TEAD-luciferase reporter activity (compound concentration: 200 nM): inactive: -0.72
TEAD-luciferase reporter activity (compound concentration: 2 uM): inactive: -2.72
TEAD-luciferase reporter activity (compound concentration: 10 uM): inactive: -0.994

CO[C@H](C(=O)[C@@H](O)[C@@H](C)O)[C@@H]1Cc2cc3cc(O[C@H]4C[C@@H](O[C@H]5C[C@@H](O)[C@H](O)[C@@H](C)O5)[C@@H](O)[C@@H](C)O4)c(C)c(O)c3c(O)c2C(=O)[C@H]1O[C@H]1C[C@@H](O[C@H]2C[C@@H](O[C@H]3C[C@](C)(O)[C@H](O)[C@@H](C)O3)[C@H](O)[C@@H](C)O2)[C@H](O)[C@@H](C)O1 [Mithramycin A]
TEAD-luciferase reporter activity (compound concentration: 200 nM): inactive: 2.16
TEAD-luciferase reporter activity (compound concentration: 2 uM): inactive: -2.09
TEAD-luciferase reporter activity (compound concentration: 10 uM): inactive: -0.0671

CO[C@H](C(=O)[C@@H](O)[C@@H](C)O)[C@@H]1Cc2cc3cc(O[C@H]4C[C@@H](O[C@H]5C[C@@H](O)[C@H](O)[C@@H](C)O5)[C@@H](O)[C@@H](C)O4)c(C)c(O)c3c(O)c2C(=O)[C@H]1O[C@H]1C[C@@H](O[C@H]2C[C@@H](O[C@H]3C[C@](C)(O)[C@H](O)[C@@H](C)O3)[C@H](O)[C@@H](C)O2)[C@H](O)[C@@H](C)O1 [Plicamycin]
TEAD-luciferase reporter activity (compound concentration: 2 uM): inactive: -2.2

O=c1c2c(n(-c3cccc(Cl)c3)c3ncccc13)CCCC2
TEAD-luciferase reporter activity (compound concentration: 200 nM): inactive: -0.651
TEAD-luciferase reporter activity (compound concentration: 2 uM): inactive: -0.317
TEAD-luciferase reporter activity (compound concentration: 10 uM): inactive: -0.442

COc1ccc2c3c1O[C@H]1C[C@@H](OC(=O)c4ccccc4)C=C[C@@]31CCN(C)C2 [Memogain]
TEAD-luciferase reporter activity (compound concentration: 200 nM): inactive: 0.943
TEAD-luciferase reporter activity (compound concentration: 2 uM): inactive: -0.832
TEAD-luciferase reporter activity (compound concentration: 10 uM): inactive: 2.96

N=C(N)NCCSSCCNC(=N)N [Guanidinoethyldisulfide bicarbonate]
TEAD-luciferase reporter activity (compound concentration: 200 nM): inactive: -1.75
TEAD-luciferase reporter activity (compound concentration: 10 uM): inactive: 0.167

CCCCCCNC(=O)n1cc(F)c(=O)[nH]c1=O [carmofur]
TEAD-luciferase reporter activity (compound concentration: 2 uM): inactive: -1.18

CCCCCCNC(=O)n1cc(F)c(=O)[nH]c1=O
TEAD-luciferase reporter activity (compound concentration: 200 nM): inactive: -0.35
TEAD-luciferase reporter activity (compound concentration: 10 uM): inactive: -1.56

COc1ccc(COc2cc3oc(=O)c4cc(C(C)O)ccc4c3cc2OC)cc1 (stereo not drawn) [Palomid 529]
TEAD-luciferase reporter activity (compound concentration: 200 nM): inactive: -1.38
TEAD-luciferase reporter activity (compound concentration: 10 uM): inactive: -0.537

COc1ccc(COc2cc3oc(=O)c4cc(C(C)O)ccc4c3cc2OC)cc1 (stereo not drawn)
TEAD-luciferase reporter activity (compound concentration: 2 uM): inactive: -1.37

COc1cc2c3c(n(CCCNCCO)c(=O)c2cc1OC)-c1cc2c(cc1C3=O)OCO2
TEAD-luciferase reporter activity (compound concentration: 200 nM): inactive: -2.13
TEAD-luciferase reporter activity (compound concentration: 2 uM): inactive: -0.135
TEAD-luciferase reporter activity (compound concentration: 10 uM): inactive: -1.5

O=C1C(NC2CCCCCCC2)=CC(=O)c2ncccc21
TEAD-luciferase reporter activity (compound concentration: 200 nM): inactive: -1.06
TEAD-luciferase reporter activity (compound concentration: 2 uM): inactive: -0.259
TEAD-luciferase reporter activity (compound concentration: 10 uM): inactive: -1.13

COc1ccc(CC(=O)N2CCCC3(Cc4ccccc4CN3C(=O)C3CCCC3)C2)cc1 (stereo not drawn)
TEAD-luciferase reporter activity (compound concentration: 200 nM): inactive: 3.48
TEAD-luciferase reporter activity (compound concentration: 10 uM): inactive: -0.344

CCCCN(CCCC)c1ccc2nc3ccc(N(CCCC)CCCC)cc3[s+]c2c1
TEAD-luciferase reporter activity (compound concentration: 200 nM): inactive: -0.579
TEAD-luciferase reporter activity (compound concentration: 2 uM): inactive: -1.92
TEAD-luciferase reporter activity (compound concentration: 10 uM): inactive: -1.78
